Assay results taken from patent US11268958B2, “Bacteria-specific labeled substrtates as imaging biomarkers to diagnose, locate, and monitor infections” (THE JOHNS HOPKINS UNIVERSITY, priority 2012, dated 2022).
Some entries share one result that the patent states for a list of compounds. For at least one compound, name, drawing or mass did not settle the structure.

Tests used:
Format in all cases: cell-based
[1] = test system: Human Brain Microvascular Endothelial Cells (HBMEC); test: Tracer uptake in Human Brain Microvascular Endothelial Cells; conditions: ^3H labeled tracers
[2] = test system: J774 macrophages; test: Tracer uptake in host cells (J774 macrophages); conditions: eukaryotic J774 macrophages, ^3H labeled tracers
[3] = test system: WEHI 164 fibroblasts; test: Tracer uptake in WEHI 164 fibroblasts; conditions: ^3H labeled tracers

Row | Structure (SMILES) | intracellular uptake [1] [%] | intracellular uptake [2] [%] | intracellular uptake [3] [%]
1 | Nc1ccc(C(=O)O)c(F)c1 [2-F-PABA, 2-fluoro-PABA] | < 1 |  | 
2 | Nc1ccc(C(=O)O)cc1F [3-F-PABA, 3-fluoro-PABA] | < 1 | < 1 | < 1
